No constants are given. Whether binding was seen depends on the method and setting. In cells and extracts the contact can be indirect. A yes stands for co-enrichment or nearness to the bait. Other partners may have been found. For some of these results: Sequences can lack the tags named with a protein.
Experiments:
[1] = target: T1, Drs1 R569Q (3x-Strep-Drs1 R569Q) (S. cerevisiae) (UniProt P32892); assay: affinity purification with mass spectrometry; purification of pre-60S intermediates from a drs1 R569Q strain by tags on Drs1 R569Q (3x-Strep) and Ssf1 (2x-ProtA); Coomassie-stained 4-20% SDS-PAGE
T1 sequence: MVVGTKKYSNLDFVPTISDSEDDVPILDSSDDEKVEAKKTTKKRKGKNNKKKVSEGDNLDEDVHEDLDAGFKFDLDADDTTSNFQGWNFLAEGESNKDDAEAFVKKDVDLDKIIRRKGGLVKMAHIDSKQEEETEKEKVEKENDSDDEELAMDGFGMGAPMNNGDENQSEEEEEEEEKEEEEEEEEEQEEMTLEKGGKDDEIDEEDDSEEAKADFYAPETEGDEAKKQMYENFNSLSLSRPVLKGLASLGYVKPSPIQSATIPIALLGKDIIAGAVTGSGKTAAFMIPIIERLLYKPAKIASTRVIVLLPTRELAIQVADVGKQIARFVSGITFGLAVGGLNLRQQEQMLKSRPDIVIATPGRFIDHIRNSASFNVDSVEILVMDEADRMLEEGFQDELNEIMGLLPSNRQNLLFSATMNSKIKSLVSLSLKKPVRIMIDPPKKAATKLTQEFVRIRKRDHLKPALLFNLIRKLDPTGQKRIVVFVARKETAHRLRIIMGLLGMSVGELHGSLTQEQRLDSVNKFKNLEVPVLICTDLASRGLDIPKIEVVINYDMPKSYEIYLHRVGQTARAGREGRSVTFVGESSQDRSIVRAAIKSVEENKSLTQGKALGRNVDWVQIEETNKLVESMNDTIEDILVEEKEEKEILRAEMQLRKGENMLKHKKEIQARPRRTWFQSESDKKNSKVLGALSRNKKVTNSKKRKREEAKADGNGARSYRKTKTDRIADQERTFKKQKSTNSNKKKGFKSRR

[2] = target: T2, Ssf1-3xFLAG-3C-2xProteinA (S. cerevisiae) (UniProt P38789); assay: as above
T2 sequence: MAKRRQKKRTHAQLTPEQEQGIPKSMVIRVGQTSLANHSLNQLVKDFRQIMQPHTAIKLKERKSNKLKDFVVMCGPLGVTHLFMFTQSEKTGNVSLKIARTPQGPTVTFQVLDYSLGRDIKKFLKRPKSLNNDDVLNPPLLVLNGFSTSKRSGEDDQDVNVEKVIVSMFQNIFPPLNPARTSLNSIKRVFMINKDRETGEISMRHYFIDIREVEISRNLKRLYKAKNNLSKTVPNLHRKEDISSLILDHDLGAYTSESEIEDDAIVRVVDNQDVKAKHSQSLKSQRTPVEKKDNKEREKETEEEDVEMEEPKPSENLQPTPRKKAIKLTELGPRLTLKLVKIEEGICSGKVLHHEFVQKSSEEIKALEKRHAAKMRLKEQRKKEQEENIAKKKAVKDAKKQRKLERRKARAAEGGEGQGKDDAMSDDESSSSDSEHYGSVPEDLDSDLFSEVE

[3] = target: T2, Ssf1-3xFLAG-3C-2xProteinA (S. cerevisiae); assay: affinity purification with mass spectrometry; split-tag purification of pre-60S particles from yeast overexpressing dbp10 R522V (β-estradiol, 1 h): IgG Sepharose on Ssf1-2xProteinA, 3C cleavage, then Strep-Tactin on Dbp10 R522V, bdNEDD8 protease elution; 50 mM Bis-Tris-Propane pH 8.0, 125 mM NaCl, 25 mM KCl, 10 mM MgCl2; Coomassie-stained 4-20% SDS-PAGE, bands named by molecular weight, ambiguous bands by mass spectrometry
[4] = target: T3, Dbp10 R522V (sfGFP-3xSTREP-bdNEDD8-MYC-dbp10 R522V) (S. cerevisiae) (UniProt Q12389); assay: as above
T3 sequence: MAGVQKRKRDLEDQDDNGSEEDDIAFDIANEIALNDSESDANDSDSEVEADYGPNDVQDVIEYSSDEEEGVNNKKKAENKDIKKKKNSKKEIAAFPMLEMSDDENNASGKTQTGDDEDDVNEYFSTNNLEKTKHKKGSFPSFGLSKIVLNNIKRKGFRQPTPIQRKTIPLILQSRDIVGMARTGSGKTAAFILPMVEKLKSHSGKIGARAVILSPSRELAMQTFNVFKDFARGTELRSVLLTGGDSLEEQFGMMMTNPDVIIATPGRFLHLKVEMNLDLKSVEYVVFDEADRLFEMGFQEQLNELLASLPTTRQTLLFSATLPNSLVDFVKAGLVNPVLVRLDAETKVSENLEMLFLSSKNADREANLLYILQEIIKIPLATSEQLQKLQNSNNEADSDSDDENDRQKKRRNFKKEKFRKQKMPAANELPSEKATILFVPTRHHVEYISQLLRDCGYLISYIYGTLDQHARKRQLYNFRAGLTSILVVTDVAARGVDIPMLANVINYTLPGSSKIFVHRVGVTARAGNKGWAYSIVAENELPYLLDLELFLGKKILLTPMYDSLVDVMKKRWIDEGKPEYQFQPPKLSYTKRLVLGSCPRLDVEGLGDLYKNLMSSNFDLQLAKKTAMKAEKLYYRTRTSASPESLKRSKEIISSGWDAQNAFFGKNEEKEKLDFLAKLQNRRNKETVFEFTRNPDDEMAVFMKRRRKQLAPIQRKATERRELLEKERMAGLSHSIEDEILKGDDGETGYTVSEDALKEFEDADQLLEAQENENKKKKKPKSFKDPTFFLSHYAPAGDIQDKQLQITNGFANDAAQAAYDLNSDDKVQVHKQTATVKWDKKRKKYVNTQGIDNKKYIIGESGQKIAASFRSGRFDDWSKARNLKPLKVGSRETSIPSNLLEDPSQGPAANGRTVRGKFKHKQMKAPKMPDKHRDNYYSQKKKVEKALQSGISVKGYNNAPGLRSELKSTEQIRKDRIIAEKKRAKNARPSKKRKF

- binding [1]: binds
- binding [2]: binds
- binding [3]: binds
- binding [4]: binds
B1: Cic1 (protein, UniProt P38779 1-376)
chain: MAKKSNSKKSTPVSTPSKEKKKVIEKKSSTAIPRERVIKAVNELIKFTSKPQDENNEEGNNGKKNLLEDDEEELKKDLQLIVVNNKSFTGTSKSFKLKLLNVKHSFYKPWKEASATAVKDFKVLLILKDSDIKKVSEDDLFDQLDSEGIKVDEIICGKDLKTVYKAYEARNAFISQFSLILADDSIVTSLPKLMGGKAYNKVETTPISIRTHANKEFSLTTLTNNIKKVYMNQLPVKLPRGTTLNVHLGNLEWLRPEEFVDNVELISEQLIKAYQIRSIFIKTNRSPVLPLYYNQDVLDELEAKKDKIEETHEDDMVTIDGVQVHLSTFNKGLMEIANPSELGSIFSKQINNAKKRSSSELEKESSESEAVKKAKS

From publication PMC11024185
